Data as given in the supplement of paper PMC10849652.
The other results are listed elsewhere or left out.

The chains behind the UniProt entries cited, without tags or fusion partners. Where a name states a change or a piece, a line headed by the entry shows the natural chain unless it says otherwise.
UniProt Q7L3B6: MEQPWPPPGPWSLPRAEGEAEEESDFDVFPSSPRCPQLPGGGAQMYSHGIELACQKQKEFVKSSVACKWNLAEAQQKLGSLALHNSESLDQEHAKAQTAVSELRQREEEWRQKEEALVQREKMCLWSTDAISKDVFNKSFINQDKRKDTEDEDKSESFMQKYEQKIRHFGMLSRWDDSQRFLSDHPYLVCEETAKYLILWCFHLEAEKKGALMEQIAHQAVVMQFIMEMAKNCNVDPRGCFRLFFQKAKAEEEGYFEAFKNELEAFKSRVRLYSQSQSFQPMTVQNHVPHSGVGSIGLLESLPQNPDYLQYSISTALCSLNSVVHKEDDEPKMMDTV
UniProt Q03701: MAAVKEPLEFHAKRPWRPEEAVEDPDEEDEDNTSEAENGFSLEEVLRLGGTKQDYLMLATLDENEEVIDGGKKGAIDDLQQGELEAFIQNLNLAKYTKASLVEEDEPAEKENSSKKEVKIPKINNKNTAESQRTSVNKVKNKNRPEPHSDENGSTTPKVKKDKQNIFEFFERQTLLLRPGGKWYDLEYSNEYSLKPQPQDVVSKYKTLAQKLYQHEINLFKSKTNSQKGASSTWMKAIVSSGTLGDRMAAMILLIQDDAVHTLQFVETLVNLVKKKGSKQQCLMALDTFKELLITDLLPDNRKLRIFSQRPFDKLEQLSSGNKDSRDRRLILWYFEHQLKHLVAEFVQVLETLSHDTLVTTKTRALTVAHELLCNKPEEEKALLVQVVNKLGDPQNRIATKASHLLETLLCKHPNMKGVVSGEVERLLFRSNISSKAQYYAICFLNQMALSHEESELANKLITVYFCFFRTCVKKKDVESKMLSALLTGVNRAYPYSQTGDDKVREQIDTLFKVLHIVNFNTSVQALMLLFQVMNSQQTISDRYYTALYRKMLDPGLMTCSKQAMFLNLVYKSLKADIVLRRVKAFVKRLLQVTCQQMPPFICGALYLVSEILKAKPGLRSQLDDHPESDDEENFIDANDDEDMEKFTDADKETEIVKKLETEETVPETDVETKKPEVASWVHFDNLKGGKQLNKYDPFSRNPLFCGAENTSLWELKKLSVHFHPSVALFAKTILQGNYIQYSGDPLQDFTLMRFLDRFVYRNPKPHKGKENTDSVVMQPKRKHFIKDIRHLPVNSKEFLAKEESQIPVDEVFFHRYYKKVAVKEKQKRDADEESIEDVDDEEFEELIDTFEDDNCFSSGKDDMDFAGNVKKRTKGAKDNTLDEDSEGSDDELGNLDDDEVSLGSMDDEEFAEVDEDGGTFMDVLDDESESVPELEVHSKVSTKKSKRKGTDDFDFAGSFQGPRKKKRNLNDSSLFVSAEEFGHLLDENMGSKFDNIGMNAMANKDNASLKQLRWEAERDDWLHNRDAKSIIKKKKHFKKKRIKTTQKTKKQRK
UniProt Q92879: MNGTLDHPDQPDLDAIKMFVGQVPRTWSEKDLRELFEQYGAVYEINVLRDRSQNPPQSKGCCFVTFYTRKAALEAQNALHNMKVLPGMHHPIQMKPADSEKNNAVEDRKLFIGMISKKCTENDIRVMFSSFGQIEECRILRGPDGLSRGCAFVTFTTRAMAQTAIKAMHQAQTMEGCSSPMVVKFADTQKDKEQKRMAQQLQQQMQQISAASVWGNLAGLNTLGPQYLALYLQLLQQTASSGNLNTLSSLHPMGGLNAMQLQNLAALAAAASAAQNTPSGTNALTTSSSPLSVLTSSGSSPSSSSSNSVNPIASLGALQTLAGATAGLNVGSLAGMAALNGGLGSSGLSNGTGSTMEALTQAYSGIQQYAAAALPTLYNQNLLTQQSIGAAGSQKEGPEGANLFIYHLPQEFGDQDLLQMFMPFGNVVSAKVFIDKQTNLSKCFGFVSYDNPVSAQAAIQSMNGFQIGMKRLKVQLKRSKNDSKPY
UniProt P49454: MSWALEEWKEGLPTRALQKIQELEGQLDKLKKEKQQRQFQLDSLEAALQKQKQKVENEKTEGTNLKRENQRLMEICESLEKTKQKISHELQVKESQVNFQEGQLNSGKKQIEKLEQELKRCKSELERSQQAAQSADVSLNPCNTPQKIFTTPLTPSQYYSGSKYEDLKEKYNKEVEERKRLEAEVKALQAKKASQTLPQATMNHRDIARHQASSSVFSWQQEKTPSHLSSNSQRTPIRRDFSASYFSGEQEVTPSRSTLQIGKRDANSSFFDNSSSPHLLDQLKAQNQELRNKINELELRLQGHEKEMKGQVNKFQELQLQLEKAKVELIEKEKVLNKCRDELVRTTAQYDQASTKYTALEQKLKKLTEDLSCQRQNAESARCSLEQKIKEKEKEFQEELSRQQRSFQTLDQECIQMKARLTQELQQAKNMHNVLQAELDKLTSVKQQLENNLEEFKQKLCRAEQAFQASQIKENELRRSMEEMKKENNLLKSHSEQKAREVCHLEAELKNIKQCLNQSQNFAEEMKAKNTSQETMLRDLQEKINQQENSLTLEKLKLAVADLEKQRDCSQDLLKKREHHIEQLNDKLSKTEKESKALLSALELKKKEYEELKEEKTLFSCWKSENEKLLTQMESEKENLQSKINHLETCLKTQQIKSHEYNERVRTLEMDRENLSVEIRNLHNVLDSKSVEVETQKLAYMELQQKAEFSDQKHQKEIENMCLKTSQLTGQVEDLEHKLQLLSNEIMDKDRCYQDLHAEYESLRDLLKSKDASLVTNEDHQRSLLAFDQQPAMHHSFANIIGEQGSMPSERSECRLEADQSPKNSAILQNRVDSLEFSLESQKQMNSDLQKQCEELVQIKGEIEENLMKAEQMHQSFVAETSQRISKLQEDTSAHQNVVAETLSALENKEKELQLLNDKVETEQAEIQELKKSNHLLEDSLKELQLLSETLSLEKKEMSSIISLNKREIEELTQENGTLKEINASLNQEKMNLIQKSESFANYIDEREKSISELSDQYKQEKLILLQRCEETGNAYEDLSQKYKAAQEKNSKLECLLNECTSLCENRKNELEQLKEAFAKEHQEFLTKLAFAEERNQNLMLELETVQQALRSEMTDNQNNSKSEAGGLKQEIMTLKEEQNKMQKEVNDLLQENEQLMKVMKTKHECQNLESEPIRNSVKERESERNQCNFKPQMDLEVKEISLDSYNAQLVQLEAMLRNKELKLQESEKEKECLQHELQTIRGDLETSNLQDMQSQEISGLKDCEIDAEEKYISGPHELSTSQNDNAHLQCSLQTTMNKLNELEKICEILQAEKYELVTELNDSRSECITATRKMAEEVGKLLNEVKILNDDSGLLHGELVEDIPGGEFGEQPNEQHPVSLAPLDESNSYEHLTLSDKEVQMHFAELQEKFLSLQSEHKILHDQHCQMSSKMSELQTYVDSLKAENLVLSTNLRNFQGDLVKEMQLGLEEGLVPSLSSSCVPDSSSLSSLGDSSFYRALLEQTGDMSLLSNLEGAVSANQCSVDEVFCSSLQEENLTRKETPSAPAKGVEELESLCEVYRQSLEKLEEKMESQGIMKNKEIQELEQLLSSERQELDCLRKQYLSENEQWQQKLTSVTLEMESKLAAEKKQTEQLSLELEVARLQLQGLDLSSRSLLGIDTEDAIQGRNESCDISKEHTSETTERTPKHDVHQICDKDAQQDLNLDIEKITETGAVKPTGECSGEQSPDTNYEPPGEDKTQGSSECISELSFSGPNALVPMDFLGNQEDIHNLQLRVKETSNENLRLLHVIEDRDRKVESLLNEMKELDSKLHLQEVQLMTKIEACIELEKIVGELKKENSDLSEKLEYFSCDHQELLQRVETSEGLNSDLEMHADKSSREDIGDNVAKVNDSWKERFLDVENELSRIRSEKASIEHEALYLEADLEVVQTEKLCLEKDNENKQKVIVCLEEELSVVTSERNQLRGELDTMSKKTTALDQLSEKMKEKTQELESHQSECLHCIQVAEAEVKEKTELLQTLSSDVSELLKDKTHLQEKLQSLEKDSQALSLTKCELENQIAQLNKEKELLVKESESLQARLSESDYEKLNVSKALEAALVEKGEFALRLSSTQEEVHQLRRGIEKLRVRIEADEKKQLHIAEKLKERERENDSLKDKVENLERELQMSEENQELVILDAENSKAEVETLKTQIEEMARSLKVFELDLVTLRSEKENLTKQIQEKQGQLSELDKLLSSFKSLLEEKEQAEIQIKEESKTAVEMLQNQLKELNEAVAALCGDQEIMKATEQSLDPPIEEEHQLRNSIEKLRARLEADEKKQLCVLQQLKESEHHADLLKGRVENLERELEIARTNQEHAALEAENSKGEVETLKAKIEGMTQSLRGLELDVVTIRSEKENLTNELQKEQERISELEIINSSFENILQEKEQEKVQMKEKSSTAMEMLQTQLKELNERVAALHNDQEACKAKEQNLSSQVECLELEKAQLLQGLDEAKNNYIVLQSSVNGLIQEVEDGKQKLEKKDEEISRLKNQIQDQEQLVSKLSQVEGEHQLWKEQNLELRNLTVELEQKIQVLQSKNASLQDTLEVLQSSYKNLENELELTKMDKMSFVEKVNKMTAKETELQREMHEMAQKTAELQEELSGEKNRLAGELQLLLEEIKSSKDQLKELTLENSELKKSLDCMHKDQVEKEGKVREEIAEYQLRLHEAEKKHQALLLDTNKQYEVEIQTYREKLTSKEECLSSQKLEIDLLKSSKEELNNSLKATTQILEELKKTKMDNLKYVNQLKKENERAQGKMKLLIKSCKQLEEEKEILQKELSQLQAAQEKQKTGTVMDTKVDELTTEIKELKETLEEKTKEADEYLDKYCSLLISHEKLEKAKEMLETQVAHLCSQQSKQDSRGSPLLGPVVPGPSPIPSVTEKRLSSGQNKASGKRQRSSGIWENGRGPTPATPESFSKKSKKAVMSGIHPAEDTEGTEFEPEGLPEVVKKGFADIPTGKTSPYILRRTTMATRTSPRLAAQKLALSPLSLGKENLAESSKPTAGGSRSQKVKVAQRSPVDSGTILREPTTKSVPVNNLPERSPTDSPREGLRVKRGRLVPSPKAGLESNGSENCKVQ
UniProt Q5SW79: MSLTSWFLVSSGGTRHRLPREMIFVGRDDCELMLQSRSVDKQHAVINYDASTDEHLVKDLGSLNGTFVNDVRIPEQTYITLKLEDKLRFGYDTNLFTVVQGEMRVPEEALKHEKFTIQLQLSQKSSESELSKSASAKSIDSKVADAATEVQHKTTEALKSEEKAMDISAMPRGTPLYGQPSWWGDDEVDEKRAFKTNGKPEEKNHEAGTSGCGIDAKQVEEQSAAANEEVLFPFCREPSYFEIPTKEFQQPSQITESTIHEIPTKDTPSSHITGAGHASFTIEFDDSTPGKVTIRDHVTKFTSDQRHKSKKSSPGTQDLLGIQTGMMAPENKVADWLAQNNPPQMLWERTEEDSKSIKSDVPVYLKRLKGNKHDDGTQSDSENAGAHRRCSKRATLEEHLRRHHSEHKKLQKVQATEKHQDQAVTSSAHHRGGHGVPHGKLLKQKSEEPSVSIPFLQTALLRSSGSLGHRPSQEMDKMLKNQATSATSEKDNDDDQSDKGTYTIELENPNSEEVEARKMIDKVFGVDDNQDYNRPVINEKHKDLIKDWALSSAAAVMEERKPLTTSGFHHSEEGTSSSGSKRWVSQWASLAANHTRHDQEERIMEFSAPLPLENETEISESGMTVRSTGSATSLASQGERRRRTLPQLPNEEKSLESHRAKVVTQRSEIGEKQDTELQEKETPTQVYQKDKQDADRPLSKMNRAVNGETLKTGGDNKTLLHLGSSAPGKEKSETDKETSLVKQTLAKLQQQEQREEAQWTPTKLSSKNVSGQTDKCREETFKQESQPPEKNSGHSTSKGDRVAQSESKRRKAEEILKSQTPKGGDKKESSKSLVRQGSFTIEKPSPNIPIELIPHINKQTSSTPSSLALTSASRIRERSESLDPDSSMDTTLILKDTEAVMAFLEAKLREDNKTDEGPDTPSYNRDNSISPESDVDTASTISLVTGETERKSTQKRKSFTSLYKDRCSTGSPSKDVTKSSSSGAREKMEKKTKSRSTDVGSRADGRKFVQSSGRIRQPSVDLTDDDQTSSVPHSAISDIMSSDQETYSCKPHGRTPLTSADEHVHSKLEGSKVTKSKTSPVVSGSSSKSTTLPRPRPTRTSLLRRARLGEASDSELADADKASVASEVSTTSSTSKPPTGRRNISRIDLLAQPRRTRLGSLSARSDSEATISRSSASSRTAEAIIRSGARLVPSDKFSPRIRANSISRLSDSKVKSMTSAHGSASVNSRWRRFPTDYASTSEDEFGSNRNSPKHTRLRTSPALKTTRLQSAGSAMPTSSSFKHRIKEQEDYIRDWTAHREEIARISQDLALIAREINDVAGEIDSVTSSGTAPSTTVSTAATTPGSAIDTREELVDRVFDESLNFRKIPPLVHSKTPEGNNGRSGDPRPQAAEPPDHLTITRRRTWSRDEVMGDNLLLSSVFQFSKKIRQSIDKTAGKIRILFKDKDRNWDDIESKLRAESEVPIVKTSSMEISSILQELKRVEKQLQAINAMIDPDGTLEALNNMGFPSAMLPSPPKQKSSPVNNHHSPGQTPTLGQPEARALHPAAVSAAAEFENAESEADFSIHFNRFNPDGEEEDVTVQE

Compound: NCC(=O)Nc1ccc(-n2nc(C(F)(F)F)cc2-c2ccc3c(ccc4ccccc43)c2)cc1
Experiment: log2 fold change, soluble protein after heating vs DMSO (PISA); higher = thermal stabilisation; K562 lysate, 10 uM; active = over 0.2 and 3.5 SD of the protein, either way, in both replicates (recomputed)
Outline: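 To prepare the extract, K562 pellets were dounce-homogenised in PBS pH 7.4 with 1 mM MgCl2, giving crude material at 1 mg/mL protein. This was treated with 10 μM compound for 30 min, then heated in aliquots for 3 min over 48°C-58°C before pooling and addition of NP-40 to 0.5% at 4°C. Centrifugation at 21,000xg for 90 min left soluble protein in the supernatant, which TMTpro 16plex LC-MS/MS quantified with equalised channel sums. Results are log-two fold changes in thermal stability compared with solvent controls, from duplicates.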

Row | Target | log2 fold change
1 | CDC25B (UniProt P30305) | inactive: -0.005
2 | CDCA2 (UniProt Q69YH5) | inactive: 0.04
3 | CEBPZOS (UniProt A8MTT3) | inactive: -0.113
4 | CDCA5 (UniProt Q96FF9) | inactive: 0.118
5 | CDKN1C (UniProt P49918) | inactive: 0.124
6 | CFAP47 (UniProt Q6ZTR5) | inactive: 0.103
7 | CDKN2AIP (UniProt Q9NXV6) | inactive: -0.005
8 | CDC123 (UniProt O75794) | inactive: -0.064
9 | CDC73 (UniProt Q6P1J9) | inactive: 0.037
10 | CDK2 (UniProt P24941) | inactive: -0.02
11 | CDK5RAP3 isoform 4 (UniProt Q96JB5) | inactive: 0.046
12 | CDC37L1 (UniProt Q7L3B6) | inactive: 0.012
13 | CFAP410 (UniProt O43822) | inactive: 0.001
14 | CEBPZ (UniProt Q03701) | inactive: -0.013
15 | CFL1 (UniProt P23528) | inactive: -0.011
16 | CDK5 (UniProt Q00535) | inactive: -0.036

Row | Target | log2 fold change
17 | CDCA3 (UniProt Q99618) | inactive: 0.102
18 | CENPQ (UniProt Q7L2Z9) | inactive: -0.016
19 | CELF1 isoform 4 (UniProt Q92879) | inactive: 0.065
20 | CDR2L (UniProt Q86X02) | inactive: 0.094
21 | CENPK (UniProt Q9BS16) | inactive: 0.132
22 | CENPE (UniProt Q02224) | inactive: 0.072
23 | CDS2 (UniProt O95674) | inactive: 0.007
24 | CENPF (UniProt P49454) | inactive: -0.002
25 | CEBPB (UniProt P17676) | inactive: -0.023
26 | CDC42SE2 (UniProt Q9NRR3) | inactive: -0.112
27 | CEP170 (UniProt Q5SW79) | inactive: 0.051
28 | CDC26 (UniProt Q8NHZ8) | inactive: -0.122
29 | CD97 (UniProt P48960) | inactive: -0.007
30 | CETN2 (UniProt P41208) | inactive: 0.047
31 | CDK9 isoform 2 (UniProt P50750) | inactive: 0.081
32 | CDC16 (UniProt Q13042) | inactive: -0.068

Some of the entries so far, comma-delimited.
Row,Target,log2 fold change
18,CENPQ (UniProt Q7L2Z9),inactive: -0.016
19,CELF1 isoform 4 (UniProt Q92879),inactive: 0.065
